From the supplement of paper PMC6289059
Some of the results follow. Many values rest on one well or one pass, so single values are uncertain.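 Hepatocyte-like cells derived from human stem cells with CRISPR-disrupted DGUOK model liver mtDNA depletion syndrome. Each well's ATP signal was scored against other wells on the same plate, and drugs scoring 3 or above were primary hits.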

Each compound was assayed on DGUOK Δ14/Δ5 iPSC-derived hepatocyte-like cells (SV20) (assay: ATP level (CellTiter-Glo luminescence) Z score relative to plate distribution, under 2-DG glycolysis block; higher = more cellular ATP (rescue of mitochondrial ATP production)). Settings: 5 µM; treatment time: day 15 to day 20 of differentiation (5 days); 2-deoxy-D-glucose: 20 mM for 24 h before assay.

Row | SMILES | ATP level
1 | C[C@@H]1C[C@H]2[C@@H]3CCC4=CC(=O)C=C[C@]4(C)[C@@]3(Cl)[C@@H](O)C[C@]2(C)[C@@]1(OC(=O)c1ccco1)C(=O)CCl | inactive: 0.562
2 | c1coc(CNc2ncnc3[nH]cnc23)c1 | active: 3.08
3 | CCOc1ccc2nc(S(N)(=O)=O)sc2c1 | inactive: 1.42
4 | O=c1oc2cc(O)ccc2s1 | inactive: 0.258
5 | CC1/C=C/C=C/C=C/C=C/C=C/C=C/C=C/C(OC2O[C@H](C)[C@@H](O)[C@H](N)[C@@H]2O)CC(O)C(C(=O)O)C(O)CC(=O)CC(O)CC(O)CC(O)CC(=O)CCCC(=O)CC(=O)OC1C(C)CC(C)C(O)CC(=O)c1ccc(N)cc1 (stereo partly specified) | inactive: 0.591
6 | C/C(=C\C(=O)OCCCCCCCCC(=O)O)C[C@@H]1OC[C@H](C[C@@H]2O[C@H]2[C@@H](C)[C@H](C)O)[C@@H](O)[C@H]1O | inactive: -3.45
7 | N[C@@H](CSCSC[C@H](N)C(=O)O)C(=O)O | inactive: -1.8
8 | CN/C(=N\CCSCc1nc[nH]c1C)NC#N | inactive: -5.63
9 | C=C1c2cccc(O)c2C(O)=C2C(=O)[C@]3(O)C(O)=C(C(N)=O)C(=O)[C@@H](N(C)C)[C@@H]3[C@@H](O)[C@H]12 | inactive: -5.56
10 | O=C(O)c1cc(/N=N/c2ccc(S(=O)(=O)Nc3ccccn3)cc2)ccc1O | inactive: 0.583
11 | CC1=C(/C=C/C(C)=C/C=C/C(C)=C/CO)C(C)(C)CCC1 | inactive: 1.78
12 | COC(=O)c1c(C)cc(OC(=O)c2c(C)cc(O)c(C=O)c2O)c(C)c1O | inactive: 0.712
13 | O=C(O)c1ccccc1OP(=O)(O)O | inactive: -6.91
14 | Cc1ncc([N+](=O)[O-])n1CC(C)O (stereo unspecified) | inactive: 1.27
15 | C/C=C(/C(=C/C)c1ccc(O)cc1)c1ccc(O)cc1 | inactive: 1.52
16 | C[C@]12CCC(=O)C=C1[C@@H]1C[C@@H]1[C@H]1[C@@H]3[C@@H]4C[C@@H]4[C@@]4(CCC(=O)O4)[C@@]3(C)CC[C@@H]12 | inactive: 0.122
17 | CC1(C)S[C@@H]2[C@H](NC(=O)[C@H](N)c3ccccc3)C(=O)N2[C@H]1C(=O)O | inactive: -0.175
18 | C=C[C@H]1CN2CC[C@H]1C[C@H]2[C@H](O)c1ccnc2ccc(OC)cc12 | inactive: -10.6
19 | O=C(/C=C/c1ccccc1)c1ccc(O[C@@H]2O[C@H](CO)[C@@H](O)[C@H](O)[C@H]2O)cc1O | inactive: -0.906
20 | CC(=O)NCCCCCC(=O)O | inactive: -0.557
21 | O=c1n(CCCN2CCN(c3cccc(Cl)c3)CC2)nc2ccccn12 | inactive: -1.43
22 | O=C(O)c1cc(=O)[nH]c(=O)[nH]1 | inactive: 1.34

Row | SMILES | ATP level
23 | CC1/C(=N/O)C[C@@H]2C[C@H]1C2(C)C (stereo partly specified) | inactive: -0.883
24 | COc1ccc([C@@H](C)C(=O)c2ccc(O)cc2O)cc1 | inactive: -2.65
25 | CC(C)(C)CC(C)(C)c1cc(Cc2cc(C(C)(C)CC(C)(C)C)cc(-n3nc4ccccc4n3)c2O)c(O)c(-n2nc3ccccc3n2)c1 | inactive: 0.174
26 | NC(=O)c1cnccn1 | inactive: 0.212
27 | CC(=O)c1ccc[nH]1 | inactive: 1.27
28 | CCCn1c(=O)c2[nH]c(C3CCCC3)nc2n(CCC)c1=O | inactive: -1.44
29 | O=C(CCNNC(=O)c1ccncc1)NCc1ccccc1 | inactive: 1.6
30 | Cc1nc2ccccn2c(=O)c1CCN1CCC(C(=O)c2ccc(F)cc2)CC1 | inactive: -1.87
31 | CSc1nc2cc(Cl)c(Oc3cccc(Cl)c3Cl)cc2[nH]1 | inactive: -0.145
32 | COc1cccc2c1C(=O)c1c(O)c3c(c(O)c1C2=O)C[C@@](O)(C(=O)CO)C[C@@H]3O[C@H]1C[C@H](N)[C@@H](O)[C@H](C)O1 | active: 3.39
33 | COc1ccc2c(c1)CC[C@@H]1[C@@H]2CC[C@]2(C)[C@@H](O)CC[C@@H]12 | inactive: -1.42
34 | O[C@H]1[C@H](O)[C@@H](O)[C@H](O)[C@@H](O)[C@H]1O | inactive: 1.42
35 | CCCN(CCC)CCc1cccc2c1CC(=O)N2 | inactive: -2.65
36 | C=C(C)[C@@H]1CC[C@]2(CO)CC[C@]3(C)[C@H](CC[C@@H]4[C@@]5(C)CC[C@H](O)C(C)(C)[C@@H]5CC[C@]43C)[C@@H]12 | inactive: 0.0268
37 | C/C=C/c1ccc(OC)cc1 | inactive: 2.09
38 | CC(=O)O[C@H]1C(=O)[C@@]2(C)[C@H]([C@H](OC(=O)c3ccccc3)[C@]3(O)C[C@H](OC(=O)[C@H](O)[C@@H](NC(=O)c4ccccc4)c4ccccc4)C(C)=C1C3(C)C)[C@]1(OC(C)=O)CO[C@@H]1C[C@@H]2O | inactive: 1.6
39 | O=C(/C=C/c1ccc(O)cc1)c1ccc(O)cc1O | inactive: 0.588
40 | Cc1c(NC(=O)c2cccnc2)c(=O)n(-c2ccccc2)n1C | inactive: -0.964
41 | CS(=O)(=O)OCCCCOS(C)(=O)=O | inactive: 0.525
42 | OCc1c[nH]c2ccccc12 | inactive: -1.35
43 | COc1ccc(-c2coc3c(O)c(O)c(OC)cc3c2=O)cc1 | active: 3.09
44 | CC(O)Cn1cnc2c1c(=O)n(C)c(=O)n2C (stereo unspecified) | inactive: 0.7

Random excerpt: four compounds from above, in no set order.
Row | SMILES | ATP level
26 | NC(=O)c1cnccn1 | inactive: 0.212
35 | CCCN(CCC)CCc1cccc2c1CC(=O)N2 | inactive: -2.65
40 | Cc1c(NC(=O)c2cccnc2)c(=O)n(-c2ccccc2)n1C | inactive: -0.964
44 | CC(O)Cn1cnc2c1c(=O)n(C)c(=O)n2C (stereo unspecified) | inactive: 0.7

Compounds shown so far containing a furan ring, fused or not, in the order listed:
Row | SMILES | ATP level
1 | C[C@@H]1C[C@H]2[C@@H]3CCC4=CC(=O)C=C[C@]4(C)[C@@]3(Cl)[C@@H](O)C[C@]2(C)[C@@]1(OC(=O)c1ccco1)C(=O)CCl | inactive: 0.562
2 | c1coc(CNc2ncnc3[nH]cnc23)c1 | active: 3.08

Remaining list, next part

Row | SMILES | ATP level
45 | N[C@@H](Cc1c[nH]c2ccccc12)C(=O)O | inactive: -9.06
46 | O=C(OOC(=O)c1ccccc1)c1ccccc1 | inactive: 0.935
47 | CCC1(C)OC(=O)N(C)C1=O (stereo unspecified) | inactive: 1.74
48 | C=C(C)[C@H]1CC=C(C)CC1 | inactive: -0.195
49 | NC(=O)CCCCC1CCSS1 (stereo unspecified) | inactive: -0.974
50 | NS(=O)(=O)c1cc2c(cc1C(F)(F)F)NCNS2(=O)=O | inactive: 1.01
51 | CC(C)CCC[C@@H](C)[C@H]1CC[C@H]2[C@@H]3CC=C4C[C@@H](OC(=O)c5ccccc5)CC[C@]4(C)[C@H]3CC[C@]12C | inactive: -1.94
52 | COc1cc(OC)c2c(c1Cl)O[C@@]1(C(=O)CC(=O)C[C@H]1C)C2=O | inactive: 0.973
53 | CN1C(=O)CC[C@H]1c1cccnc1 | inactive: 0.173
54 | CC(=O)N[C@H]1[C@H]([C@@H](O)[C@@H](O)CO)O[C@@](O)(C(=O)O)C[C@@H]1O | inactive: 0.921
55 | CC[C@@H]1C(=O)OC[C@@H]1Cc1cncn1C | inactive: -1.82
56 | NC(=O)NCCC[C@H](N)C(=O)O | inactive: 1.51
57 | O=c1oc2c(O)c(O)cc3c(=O)oc4c(O)c(O)cc1c4c23 | inactive: -0.405
58 | O=C1NS(=O)(=O)c2ccccc21 | inactive: 1.41
59 | NS(=O)(=O)c1cc2c(cc1Cl)NC(C1CC3C=CC1C3)NS2(=O)=O (stereo unspecified) | inactive: -36.8
60 | CC(=O)CC(c1ccccc1)c1c(O)c2ccccc2oc1=O (stereo unspecified) | inactive: -4.66
61 | CCN(CC)CC(=O)Nc1c(C)cccc1C | inactive: 1.35
62 | c1ccc2c(CC3=NCCN3)cccc2c1 | inactive: 1.07
63 | CC(=O)OCC(=O)[C@@]12OC(C)(C)O[C@@H]1C[C@H]1[C@@H]3C[C@H](F)C4=CC(=O)C=C[C@]4(C)[C@@]3(F)[C@@H](O)C[C@@]12C | inactive: 2.34
64 | OCc1ccccc1O[C@@H]1O[C@H](CO)[C@@H](O)[C@H](O)[C@H]1O | inactive: 0.451
65 | C=CC1=C(C(=O)O)N2C(=O)[C@@H](NC(=O)/C(=N\O)c3csc(N)n3)[C@H]2SC1 | inactive: 0.809
66 | Cc1cn([C@H]2C=C[C@@H](CO)O2)c(=O)[nH]c1=O | inactive: 0.683

Row | SMILES | ATP level
67 | CC(=O)NS(=O)(=O)c1ccc(N)cc1 | inactive: -9.97
68 | C=C1CC[C@@H]2[C@](C)(CO)[C@H](O)CC[C@@]2(C)[C@@H]1C/C=C1/C(=O)OC[C@H]1O | inactive: -4.04
69 | Oc1ccc([C@H]2Oc3cc(O)cc(O)c3C[C@H]2O)cc1 | inactive: -0.886
70 | COc1cccc2c1C(=O)c1c(O)c3c(c(O)c1C2=O)C[C@@](O)(C(C)=O)C[C@@H]3O[C@H]1C[C@H](N)[C@H](O)[C@H](C)O1 | inactive: -20.5
71 | Cc1c(-c2cnccn2)ssc1=S | inactive: -3.91
72 | C[C@@H]1C[C@H]2[C@@H]3CCC4=CC(=O)C=C[C@]4(C)[C@@]3(F)[C@@H](O)C[C@]2(C)[C@@]1(O)C(=O)COP(=O)(O)O | inactive: 0.685
73 | CCN(CC)CCNC(C(=O)OCCC(C)C)c1ccccc1 (stereo unspecified) | inactive: -0.343
74 | C[C@]12CC[C@@H]3c4ccc(OC(=O)c5ccccc5)cc4CC[C@H]3[C@@H]1CC[C@@H]2O | inactive: 2.03
75 | CN1CCN(C(c2ccccc2)c2ccccc2)CC1 | inactive: -3.44
76 | C[N+](C)(C)CC(=O)O | inactive: -24.3
77 | O=C(O)c1ccccc1C(=O)Nc1ccc(S(=O)(=O)Nc2nccs2)cc1 | inactive: 0.487
78 | NC[C@@H]1O[C@@H](O[C@H]2[C@H](O)[C@@H](O[C@H]3O[C@H](CO)[C@@H](O)[C@H](N)[C@H]3O)[C@H](N)C[C@@H]2N)[C@@H](O)[C@H](O)[C@H]1O | inactive: 1.17
79 | CC1CC(OC(=O)c2ccccc2O)CC(C)(C)C1 (stereo unspecified) | inactive: 0.474
80 | COC(=O)c1cc(OC)c(=O)c2c(OC)c(OC)ccc2c1 | inactive: 0.995
81 | C[C@H](CCC(=O)O)[C@H]1CC[C@H]2[C@@H]3[C@@H](O)C[C@@H]4C[C@H](O)CC[C@]4(C)[C@H]3CC[C@]12C | inactive: 0.761
82 | CN1CCC(=C2c3ccccc3Sc3ccccc32)CC1 | inactive: -0.817
83 | Nc1c2ccccc2nc2ccccc12 | active: 4
84 | COC1=CC(=O)C(C(=O)c2ccccc2)=CC1=O | inactive: 0.737
85 | N[C@@H](Cc1cc(I)c(Oc2ccc(O)c(I)c2)c(I)c1)C(=O)O | inactive: 0.845
86 | CC[C@H]1OC(=O)C[C@@H](O)[C@H](C)[C@@H](O[C@@H]2O[C@H](C)[C@@H](O[C@H]3C[C@@](C)(O)[C@@H](O)[C@H](C)O3)[C@H](N(C)C)[C@H]2O)[C@@H](CC=O)C[C@@H](C)C(=O)/C=C/C(C)=C/[C@@H]1CO[C@@H]1O[C@H](C)[C@@H](O)[C@@H](OC)[C@H]1OC | inactive: 0.602
